PubChem BioAssay AID1259308, NCATS | 2017
In all, the deposit lists about 59,000 reagents; this is a part drawn at random. Of all reagents, about 1,510 (2.6%) got an active call. 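Calls use total luciferase alone and ignore viability, so some active siRNAs may act by altering cell number.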 Entries without a mark were called inactive. The numbers tell different reagents against one gene apart. Not all columns of the deposit are shown.

Test: 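Genes whose loss raises luciferase production in HEK293 cells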 (primary screen)
Cell system: human HEK293 embryonic kidney cells stably expressing firefly luciferase (HEK-CMV-Luc2-Hygro)
Knock-down reagent: single siRNA against human genes, 0.8 pmol siRNA per well
Timing: 72 h
Read-out: 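Luciferase light (ONE-Glo) measured on one replicate plate set and viability (CellTiter-Glo) on the other, scaled to a negative control siRNA, with robust z-scores and luciferase per cell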
Scale: total luciferase, z-score: higher = more reporter protein produced
Call rule: 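An siRNA counts as active if its total luciferase robust z-score exceeds 3; genes with two or more such siRNAs out of three were retested with fresh siRNAs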
Meaning of the calls: active = raised luciferase; inactive = no rise

total luciferase, z-score, by target and reagent
INSR (insulin receptor): #1 -1.39; #2 -0.0334; #3 -0.818
LUC7L3 (LUC7 like 3 pre-mRNA splicing factor): #1 0.247; #2 1.7; #3 3.2 (active)
OR52D1 (olfactory receptor family 52 subfamily D member 1): #1 -0.302; #2 -0.00569; #3 0.908
CLIC4 (CLIC family member 4): #1 -0.495; #2 0.41; #3 0.445
HSD17B1 (hydroxysteroid 17-beta dehydrogenase 1): #1 -0.711; #2 0.696; #3 -2.56
KCNA3 (potassium voltage-gated channel subfamily A member 3): #1 -0.346; #2 0.678; #3 -2.38
TRIM71 (tripartite motif containing 71): #1 0.212; #2 2.11; #3 2.54
TRHDE (thyrotropin releasing hormone degrading enzyme): #1 0.888; #2 -1.76; #3 -0.789
MYOM2 (myomesin 2): #1 -0.158; #2 1.83; #3 1.62
PTCRA (pre T cell antigen receptor alpha): #1 -0.951; #2 0.188; #3 2.66
GTPBP6 (GTP binding protein 6): #1 0.721; #2 0.857; #3 -1.06
ZNF398 (zinc finger protein 398): #1 0.314; #2 -0.406; #3 2.1
SLC17A5: #1 0.839; #2 1.18; #3 0.244
NIN (ninein): #1 0.418; #2 -0.743; #3 2.39
RTL6 (retrotransposon Gag like 6): #1 1.49; #2 0.112; #3 1.66
HPN (hepsin): #1 2.73; #2 -1.74; #3 -0.338
SOX13 (SRY-box transcription factor 13): #1 -0.689; #2 -0.623; #3 1.95
SAXO6 (stabilizer of axonemal microtubules 6): #1 -1.85; #2 1.17; #3 0.0462
SLC26A5: #1 -1.44; #2 -0.245; #3 -1.12
BEX3 (brain expressed X-linked 3): #1 2.9; #2 -0.313; #3 1.81
NT5DC2 (5'-nucleotidase domain containing 2): #1 0.469; #2 0.231; #3 -0.137
SIK2 (salt inducible kinase 2): #1 2.09; #2 3.12 (active); #3 0.757
ZNF674 (zinc finger protein 674): #1 0.852; #2 0.126; #3 1.25
GCNT2 (glucosaminyl (N-acetyl) transferase 2 (I blood group)): #1 -0.0588; #2 -1.09; #3 -2.07
ZNF702P (zinc finger protein 702, pseudogene): #1 1.81; #2 0.367; #3 -0.0808

No new results follow: 6 of the entries above.
total luciferase, z-score, by target and reagent
HSD17B1 (hydroxysteroid 17-beta dehydrogenase 1): #1 -0.711; #2 0.696; #3 -2.56
KCNA3 (potassium voltage-gated channel subfamily A member 3): #1 -0.346; #2 0.678; #3 -2.38
